Results reported in PubChem BioAssay AID330 (DTP/NCI, 2004).
The list does not hold the whole screen: it is rich in T/C values a quarter to a half above the control, in often repeated tests (any T/C) and in doses without a T/C. Other doses and runs of a compound stand elsewhere. T/C gives the treated animals as a percentage of the vehicle group. Some entries give survivors of the animals treated and no T/C: the source files T/C as zero there, which appears to mark a toxic dose or a test without result, not a measured value. Some doses without a T/C left all or most animals alive at the check, yet need not have been tolerated: survival well below the control is almost never listed, so the zero probably covers shortened survival too. Survivors were counted at the toxicity check, usually on the fifth day, unless a day is given; later deaths do not show. Schedule codes are those of the source, taken here to give the interval after Q, in days (D) or hours (H), and the number of doses after X. Some doses were run more than once; their values stand side by side, smallest first. For survival time, this PubChem deposit counts one and a half times the control or more as active, and values a quarter to a half above the control carry no call in these data; other NCI protocols may use other cut-offs. Some T/C values carry the count of animals alive at the toxicity check (mostly the fifth day); where none is given, no animal had died by that day. Brackets with × count equal records among those shown.

System: P388 leukemia ip, CD2F1 mice, survival T/C
Experiment: NCI In Vivo Anticancer Drug Screen. Data for tumor model P388 Leukemia (intraperitoneal) in CD2F1 (CDF1) mice
Conditions: T/C endpoint: median survival time, higher T/C = longer survival
[1] = dose: 25.0 mg/kg/injection, schedule: Q01DX009 (ip), vehicle: Klucel (hydroxypropylcellulose) (HPC)

O=P1(N(CCCl)CCCl)NCCCO1 (stereo not drawn)
T/C (dose: 6.25 mg/kg/injection, schedule: Q01DX005 (ip), vehicle: saline, evaluated on day 30): 115, 126 [5 of 6 alive], 129, 148, 150 % of control | T/C (dose: 6.25 mg/kg/injection, schedule: Q01DX005 (ip), vehicle: saline, evaluated on day 45): 124 and 133 % of control | T/C (dose: 6.25 mg/kg/injection, schedule: Q01DX009 (ip), vehicle: saline): 136 % of control | T/C (dose: 8.0 mg/kg/injection, schedule: Q01DX009 (ip), vehicle: saline): 137 % of control | T/C (dose: 10.0 mg/kg/injection, schedule: Q04DX003 (ip), vehicle: saline): 126 % of control | T/C (dose: 12.5 mg/kg/injection, schedule: Q01DX005 (ip), vehicle: saline, evaluated on day 30): 144, 148, 154 (2×), 165, 168, 203 % of control | T/C (dose: 12.5 mg/kg/injection, schedule: Q01DX005 (ip), vehicle: saline, evaluated on day 45): 146 and 154 % of control | T/C (dose: 12.5 mg/kg/injection, schedule: Q01DX009 (ip), vehicle: water): 148 % of control | T/C (dose: 12.5 mg/kg/injection, schedule: Q04DX003 (ip), vehicle: saline, evaluated on day 30): 149 % of control | T/C (dose: 12.5 mg/kg/injection, schedule: Q04DX003 (ip), vehicle: saline, evaluated on day 45): 125 and 137 % of control | T/C (dose: 12.5 mg/kg/injection, schedule: Q04DX003 (ip), vehicle: saline, evaluated on day 50): 162 % of control | T/C (dose: 17.3 mg/kg/injection, schedule: Q01DX005 (ip), vehicle: saline): 137 % of control | T/C (dose: 20.0 mg/kg/injection, schedule: Q04DX003 (ip), vehicle: saline, evaluated on day 35): 145 % of control | T/C (dose: 20.0 mg/kg/injection, schedule: Q04DX003 (ip), vehicle: saline, evaluated on day 45): 146 % of control | T/C (dose: 25.0 mg/kg/injection, schedule: Q01DX005 (ip), vehicle: Klucel (hydroxypropylcellulose) (HPC), evaluated on day 30): 109, 118, 122, 126, 172, 181 (2×), 193, 196, 200 (2×), 203, 206, 208, 210 (2×), 212, 214, 215, 216, 216 [2 of 2 alive], 217, 218, 225, 228 (2×), 230 [2 of 3 alive], 233, 238, 240, 242, 243, 250, 269 % of control | T/C (dose: 25.0 mg/kg/injection, schedule: Q01DX005 (ip), vehicle: Klucel (hydroxypropylcellulose) (HPC), evaluated on day 35): 333 % of control | T/C (dose: 25.0 mg/kg/injection, schedule: Q01DX005 (ip), vehicle: saline, evaluated on day 30): 195, 201, 202, 212, 216, 220, 225, 262 % of control | T/C (dose: 25.0 mg/kg/injection, schedule: Q01DX005 (ip), vehicle: saline, evaluated on day 45): 190 and 206 % of control [7 of 8 alive] | T/C [1]: 116, 126, 135, 142, 149, 183, 192 (2×), 200, 205, 206, 212, 219, 223, 224, 228 (2×), 230, 233, 237, 245, 258, 265, 268, 270, 271, 276, 277, 285, 287, 291, 296, 329 % of control (2×) | survivor count [1]: 6 of 6 | T/C (dose: 25.0 mg/kg/injection, schedule: Q01DX009 (ip), vehicle: saline): 167, 234, 291, 300 % of control | T/C (dose: 25.0 mg/kg/injection, schedule: Q01DX009 (ip), vehicle: water): 132 % of control | T/C (dose: 25.0 mg/kg/injection, schedule: Q04DX003 (ip), vehicle: saline, evaluated on day 30): 160 % of control | T/C (dose: 25.0 mg/kg/injection, schedule: Q04DX003 (ip), vehicle: saline, evaluated on day 45): 170 and 179 % of control | T/C (dose: 25.0 mg/kg/injection, schedule: Q04DX003 (ip), vehicle: saline, evaluated on day 50): 169 % of control | T/C (dose: 25.0 mg/kg/injection, schedule: Q04DX003 (ip), vehicle: water): 137 % of control | T/C (dose: 28.8 mg/kg/injection, schedule: Q01DX009 (ip), vehicle: saline): 130 % of control | T/C (dose: 32.0 mg/kg/injection, schedule: Q01DX009 (ip), vehicle: saline, evaluated on day 5): 138 % of control | T/C (dose: 32.0 mg/kg/injection, schedule: Q01DX009 (ip), vehicle: saline, evaluated on day 45): 133 % of control | T/C (dose: 37.5 mg/kg/injection, schedule: Q01DX001 (ip), vehicle: saline): 119, 124, 134, 167 % of control | T/C (dose: 40.0 mg/kg/injection, schedule: Q01DX005 (ip), vehicle: saline, evaluated on day 30): 89, 164, 214, 220, 221, 228, 235, 237 (3×), 238, 240, 250, 250 [4 of 6 alive], 254, 265 (2×), 267, 270, 283, 294 (2×), 300 (3×), 309 % of control | T/C (dose: 40.0 mg/kg/injection, schedule: Q01DX005 (ip), vehicle: saline, evaluated on day 35): 350 % of control | T/C (dose: 40.0 mg/kg/injection, schedule: Q01DX005 (ip), vehicle: saline, evaluated on day 60): 235 and 440 % of control | survivor count (dose: 40.0 mg/kg/injection, schedule: Q01DX005 (ip), vehicle: saline): 6 of 6 | T/C (dose: 40.0 mg/kg/injection, schedule: Q01DX009 (ip), vehicle: saline, evaluated on day 30): 92, 109, 169, 225, 250, 260, 264, 265 (3×), 267, 270 (3×), 275, 276, 277, 285, 294 (2×), 297 (2×), 300 (3×), 300 [4 of 6 alive], 309 % of control | T/C (dose: 40.0 mg/kg/injection, schedule: Q01DX009 (ip), vehicle: saline, evaluated on day 35): 350 % of control | T/C (dose: 40.0 mg/kg/injection, schedule: Q01DX009 (ip), vehicle: saline, evaluated on day 60): 359 and 550 % of control | survivor count (dose: 40.0 mg/kg/injection, schedule: Q01DX009 (ip), vehicle: saline): 6 of 6 | T/C (dose: 50.0 mg/kg/injection, schedule: Q01DX001 (ip), vehicle: Klucel (hydroxypropylcellulose) (HPC), evaluated on day 30): 101, 149, 151, 152, 156, 157 [2 of 3 alive], 163 (3×), 166 (2×), 179 (3×), 180, 181, 184 (2×), 189, 190 (3×), 194, 204, 205, 208, 212, 219, 240 % of control | T/C (dose: 50.0 mg/kg/injection, schedule: Q01DX001 (ip), vehicle: Klucel (hydroxypropylcellulose) (HPC), evaluated on day 35): 175 % of control | survivor count (dose: 50.0 mg/kg/injection, schedule: Q01DX001 (ip), vehicle: Klucel (hydroxypropylcellulose) (HPC)): 3 of 3 and 6 of 6 | T/C (dose: 50.0 mg/kg/injection, schedule: Q01DX001 (ip), vehicle: saline, evaluated on day 5): 111, 116, 135, 154 % of control | T/C (dose: 50.0 mg/kg/injection, schedule: Q01DX001 (ip), vehicle: saline, evaluated on day 9): 99, 118, 123 % of control
